# Values of other authors in patent US20240122848A1, “APPETITE SUPPRESSANT” (priority 2017, published 2024).
# At least one compound was matched to its structure with a doubt left.
# Conditions: cited from earlier work
structure (smiles),measurement,value
"CCCCCCCCCCCCCCCC(=O)N[C@@H](CCC(=O)NCCCC[C@H](NC(=O)[C@H](C)NC(=O)[C@H](C)NC(=O)[C@H](CCC(N)=O)NC(=O)CNC(=O)[C@H](CCC(=O)O)NC(=O)[C@H](CC(C)C)NC(=O)[C@H](Cc1ccc(O)cc1)NC(=O)[C@H](CO)NC(=O)[C@H](CO)NC(=O)[C@@H](NC(=O)[C@H](CC(=O)O)NC(=O)[C@H](CO)NC(=O)[C@@H](NC(=O)[C@H](Cc1ccccc1)NC(=O)[C@@H](NC(=O)CNC(=O)[C@H](CCC(=O)O)NC(=O)[C@H](C)NC(=O)[C@@H](N)Cc1cnc[nH]1)[C@@H](C)O)[C@@H](C)O)C(C)C)C(=O)N[C@@H](CCC(=O)O)C(=O)N[C@@H](Cc1ccccc1)C(=O)N[C@H](C(=O)N[C@@H](C)C(=O)N[C@@H](Cc1c[nH]c2ccccc12)C(=O)N[C@@H](CC(C)C)C(=O)N[C@H](C(=O)N[C@@H](CCCNC(=N)N)C(=O)NCC(=O)N[C@@H](CCCNC(=N)N)C(=O)NCC(=O)O)C(C)C)[C@@H](C)CC)C(=O)O [SAXENDA, Liraglutide]",patients with 5% weight loss/one year,60 % patients
same,patients with 10% weight loss/one year,30 % patients
